Some results were stated once for a whole list of compounds, not compound by compound.
Assays:
IGF-1R = biological target: T1, IGF-1R (Homo sapiens, UniProt P08069); test: In vitro IGF-1R enzymatic assay (ADP-Glo kinase assay); format: biochemical; conditions: activated IGF-1R, 1 μM, in duplicate
T1 construct: purchased Millipore 14-802
Method: (§1) IC50 values of the compounds of the invention against IGF-1R and IR were measured in vitro using an ADP-Glo kinase assay Kit (Promega). […] Kinase reactions in both assays were conducted at 30° C. for 20 min with increasing concentrations of compounds of the invention.
Additional compounds of the invention were screened against activated IGF-1R.

Sequences of proteins named here, by UniProt entry; tags and fusion partners are left off. Residues count along the entry.
UniProt P08069, 31-1367: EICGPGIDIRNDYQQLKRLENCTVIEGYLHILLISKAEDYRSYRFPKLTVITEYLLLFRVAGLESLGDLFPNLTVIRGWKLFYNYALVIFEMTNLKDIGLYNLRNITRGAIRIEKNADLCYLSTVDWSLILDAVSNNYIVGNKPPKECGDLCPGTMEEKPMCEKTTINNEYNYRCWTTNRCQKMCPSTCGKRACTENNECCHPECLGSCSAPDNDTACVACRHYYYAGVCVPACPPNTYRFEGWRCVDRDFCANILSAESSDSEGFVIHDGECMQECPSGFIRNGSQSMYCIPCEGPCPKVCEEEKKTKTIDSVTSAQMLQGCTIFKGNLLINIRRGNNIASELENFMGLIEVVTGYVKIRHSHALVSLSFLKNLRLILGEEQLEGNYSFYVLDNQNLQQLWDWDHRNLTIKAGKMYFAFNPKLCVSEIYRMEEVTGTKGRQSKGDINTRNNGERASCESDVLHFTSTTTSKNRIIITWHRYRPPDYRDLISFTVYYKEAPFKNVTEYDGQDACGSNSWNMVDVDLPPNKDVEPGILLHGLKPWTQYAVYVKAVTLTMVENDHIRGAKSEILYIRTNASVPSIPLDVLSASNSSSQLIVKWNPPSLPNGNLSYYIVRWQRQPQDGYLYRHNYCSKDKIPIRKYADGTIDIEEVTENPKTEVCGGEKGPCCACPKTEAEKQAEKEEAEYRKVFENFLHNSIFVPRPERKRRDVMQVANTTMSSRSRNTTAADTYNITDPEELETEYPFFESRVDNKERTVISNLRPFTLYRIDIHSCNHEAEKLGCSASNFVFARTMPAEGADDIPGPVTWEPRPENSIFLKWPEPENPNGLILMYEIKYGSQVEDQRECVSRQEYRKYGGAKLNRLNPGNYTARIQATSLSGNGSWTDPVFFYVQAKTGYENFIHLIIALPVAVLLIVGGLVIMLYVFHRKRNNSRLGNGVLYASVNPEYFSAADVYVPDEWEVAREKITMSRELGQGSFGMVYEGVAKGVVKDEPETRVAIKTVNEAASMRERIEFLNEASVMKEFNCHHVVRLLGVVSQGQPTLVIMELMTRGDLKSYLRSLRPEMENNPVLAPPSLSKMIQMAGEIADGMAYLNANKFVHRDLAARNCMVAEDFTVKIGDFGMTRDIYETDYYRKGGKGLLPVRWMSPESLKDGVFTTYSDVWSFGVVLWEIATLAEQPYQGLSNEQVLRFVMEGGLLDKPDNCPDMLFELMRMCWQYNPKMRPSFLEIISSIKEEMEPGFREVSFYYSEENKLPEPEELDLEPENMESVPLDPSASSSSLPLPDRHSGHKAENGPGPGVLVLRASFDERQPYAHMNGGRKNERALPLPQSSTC
UniProt P06213, 28-1382: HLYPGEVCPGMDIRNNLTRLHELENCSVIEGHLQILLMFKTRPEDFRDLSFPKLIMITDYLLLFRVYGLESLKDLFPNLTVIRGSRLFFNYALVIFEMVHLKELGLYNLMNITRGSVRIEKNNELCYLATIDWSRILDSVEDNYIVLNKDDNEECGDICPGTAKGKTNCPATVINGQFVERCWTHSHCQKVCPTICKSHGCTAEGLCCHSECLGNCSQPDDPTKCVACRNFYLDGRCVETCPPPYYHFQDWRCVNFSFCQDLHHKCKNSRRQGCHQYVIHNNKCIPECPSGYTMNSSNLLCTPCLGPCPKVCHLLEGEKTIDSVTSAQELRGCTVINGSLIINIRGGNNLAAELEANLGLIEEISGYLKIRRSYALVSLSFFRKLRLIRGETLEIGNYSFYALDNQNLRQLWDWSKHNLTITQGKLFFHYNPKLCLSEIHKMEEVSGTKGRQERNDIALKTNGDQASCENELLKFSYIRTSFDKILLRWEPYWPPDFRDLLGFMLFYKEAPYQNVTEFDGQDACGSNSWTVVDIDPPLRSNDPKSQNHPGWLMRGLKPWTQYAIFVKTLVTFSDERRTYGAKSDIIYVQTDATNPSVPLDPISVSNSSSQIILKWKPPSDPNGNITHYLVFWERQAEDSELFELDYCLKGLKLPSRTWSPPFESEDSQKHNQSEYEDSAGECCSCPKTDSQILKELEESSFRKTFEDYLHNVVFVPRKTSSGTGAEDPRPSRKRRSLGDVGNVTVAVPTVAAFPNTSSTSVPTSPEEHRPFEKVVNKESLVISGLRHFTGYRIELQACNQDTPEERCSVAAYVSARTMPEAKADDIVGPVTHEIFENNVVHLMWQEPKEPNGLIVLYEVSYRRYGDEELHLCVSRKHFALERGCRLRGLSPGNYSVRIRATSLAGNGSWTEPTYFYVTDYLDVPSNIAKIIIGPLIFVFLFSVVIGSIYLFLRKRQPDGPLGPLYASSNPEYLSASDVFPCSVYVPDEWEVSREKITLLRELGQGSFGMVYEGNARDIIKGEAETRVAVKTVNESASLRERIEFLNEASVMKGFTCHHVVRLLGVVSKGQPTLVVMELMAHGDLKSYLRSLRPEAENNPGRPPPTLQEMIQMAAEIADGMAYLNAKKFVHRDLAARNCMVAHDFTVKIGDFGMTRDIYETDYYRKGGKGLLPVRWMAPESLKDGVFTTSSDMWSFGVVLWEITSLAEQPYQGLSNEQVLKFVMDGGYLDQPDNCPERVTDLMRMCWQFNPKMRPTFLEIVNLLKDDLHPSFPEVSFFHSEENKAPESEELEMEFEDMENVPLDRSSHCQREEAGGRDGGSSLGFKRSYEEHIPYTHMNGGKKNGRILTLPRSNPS

IR = biological target: T2, IR (Homo sapiens, UniProt P06213); test: In vitro IR enzymatic assay (ADP-Glo kinase assay); format: biochemical; conditions: activated IR, 1 μM, in duplicate
T2 construct: purchased Millipore 14-803
Method: as §1
Additional compounds of the invention were screened against activated IR.

Structure (SMILES)	inhibition of binding (IGF-1R)	inhibition of binding (IR)
CC(C)c1cc(Nc2nc(N3CC(O)CC3C(=O)N3CCCCC3)nc3c2CCC3)n[nH]1 (stereo not shown) [Compound 107b, (4-hydroxy-1-(4-(5-isopropyl-1H-pyrazol-3-ylamino)-6,7-dihydro-5H-cyclopenta[d]pyrimidin-2-yl)pyrrolidin-2-yl)(piperidin-1-yl)methanone]	< 35%	≤ 40%
O=C(C1CC(O)CN1c1nc2c(c(Nc3cc(C4CCCC4)[nH]n3)n1)CCC2)N1CCCCC1 (stereo not shown) [Compound 108b, (1-(4-(5-cyclopentyl-1H-pyrazol-3-ylamino)-6,7-dihydro-5H-cyclopenta[d]pyrimidin-2-yl)-4-hydroxypyrrolidin-2-yl)(piperidin-1-yl)methanone]	< 35%	≤ 40%
CN(C)C(=O)C1CC(O)CN1c1nc2c(c(Nc3cc(C4CCCC4)[nH]n3)n1)CCC2 (stereo not shown) [Compound 110b, 1-(4-(5-cyclopentyl-1H-pyrazol-3-ylamino)-6,7-dihydro-5H-cyclopenta[d]pyrimidin-2-yl)-4-hydroxy-N,N-dimethylpyrrolidine-2-carboxamide]	< 35%	≤ 40%
O=C(C1CCCN1c1nc2c(c(Nc3cc(C4CCCCC4)[nH]n3)n1)CCC2)N1CCCCC1 (stereo not shown) [Compound 113b, (1-(4-(5-cyclohexyl-1H-pyrazol-3-ylamino)-6,7-dihydro-5H-cyclopenta[d]pyrimidin-2-yl)pyrrolidin-2-yl)(piperidin-1-yl)methanone]	< 35%	≤ 40%
CN(C)C(=O)C1CCCN1c1nc2c(c(Nc3cc(C4CCCCC4)[nH]n3)n1)CCC2 (stereo not shown) [Compound 114b, 1-(4-(5-cyclohexyl-1H-pyrazol-3-ylamino)-6,7-dihydro-5H-cyclopenta[d]pyrimidin-2-yl)-N,N-dimethylpyrrolidine-2-carboxamide]	< 35%	≤ 40%

— patent US9499519B2, “Fused pyrimidine compounds and use thereof” (Medivation Technologies, Inc., priority 2012, dated 2016)
